# Measurements from PubChem BioAssay AID2417 (National Center for Advancing Translational Sciences (NCATS), 2010).
# In all, about 140,000 compounds went through this assay and about 4,300 (3.1%) were called active. This list was built around the results that the source calls inconclusive (neither active nor inactive); the mix of calls is not that of the screen.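 Rule for the calls: active = readout at or below -70, meaning at least 70% loss of cells showing the perinucleolar compartment, a nuclear body marking cancer cells; inconclusive = readout between -30 and a set limit; inactive = the rest.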
# Assay: High Content Assay for Compounds that inhibit the Assembly of the Perinucleolar Compartment;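 note: plate controls were DMSO wells for no effect and camptothecin positive control wells for full effect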
# Settings: PC3M PTB-GFP, PNC prevalence imaging, 16 h; at 10 µM; active compounds read low
# In short: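 Compounds are pinned in duplicate onto adhered PC3M cells stably expressing GFP-tagged PTB and incubated 16 h at 37 C. Cells are then fixed, nuclei stained with Hoechst, and PNC-positive cells counted.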
row,SMILES,"activity change (PNC), negative = inhibition"
1,CCOC(=O)N1CCN(CCC(=O)Nc2cccc(Br)c2)CC1,inconclusive: -35.8%
2,Nc1cc(C(=O)N2CCCC2)cc(C(=O)N2CCCC2)c1,inconclusive: -71.5%
3,O=C(NCc1cccnc1)c1cccc(NC(=O)c2ccco2)c1,inconclusive: -32.8%
4,COC(=O)C1=C(C)NC(=S)N(C(C)=O)C1c1ccc(OC)c(OC)c1 (centres undefined),inconclusive: -44.6%
5,O=C(Nc1nc(-c2ccccc2)c(-c2ccccc2)s1)c1ccc(S(=O)(=O)N2CCCCC2)cc1,inconclusive: -64.2%
6,CCc1c(C)sc(NC(=O)C2CCCO2)c1C#N (centres undefined),inactive: -26.1%
7,Clc1cccc(-c2ccc(C=Nc3ccc(N4CCOCC4)cc3)o2)c1,inconclusive: -42.3%
8,COCCN1Cc2cccc(C(=O)Nc3cc(OC)ccc3OC)c2C1=O,inconclusive: -40.9%
9,CC(=O)Nc1ccccc1O,inactive: 70.8%
10,CCn1c(SCC(=O)c2c(N)n(C)c(=O)n(C)c2=O)nnc1-c1ccccc1,inactive: 14.6%
11,Cc1cc(C(=O)Nc2ccccc2)c(C)o1,inconclusive: -39.3%
12,O=C(NCCCCNC(=O)c1cccnc1)c1cccnc1,inconclusive: -78.9%
13,COC(=O)c1ccccc1NS(=O)(=O)c1ccc2[nH]c(=O)[nH]c2c1,inactive: -18.2%
14,COCCCN1C(=O)C(=O)/C(=C(/O)c2ccc(OC(C)C)cc2)C1c1cccnc1 (centres undefined),inactive: 3.62%
15,Cc1cc2ccccc2n2c(SCC(=O)NCc3cccs3)nnc12,inconclusive: -31.1%
16,COc1ccccc1S(=O)(=O)Cc1ccc(C(=O)N2CCCC2)o1,inconclusive: -32.9%
17,CCN(CC)C(=O)Oc1ccc2c(=O)c(-c3ccc(OC)cc3)c(C)oc2c1,inconclusive: -75.2%
18,CC1(C)CC(N2CN(C3CCCCC3)CC2=O)CC(C)(C)N1,inconclusive: -46%
19,CC(=O)c1cnc(N2CCCCC2)nc1C,inconclusive: -70.9%
20,Cc1ccccc1NC(=O)C1c2cccc[n+]2CC(=O)N1c1c(C)cccc1C (centres undefined),inconclusive: -34.3%

# Compounds listed so far with two or more sulfur atoms (two):
row,SMILES,"activity change (PNC), negative = inhibition"
5,O=C(Nc1nc(-c2ccccc2)c(-c2ccccc2)s1)c1ccc(S(=O)(=O)N2CCCCC2)cc1,inconclusive: -64.2%
15,Cc1cc2ccccc2n2c(SCC(=O)NCc3cccs3)nnc12,inconclusive: -31.1%

# More entries follow:

row,SMILES,"activity change (PNC), negative = inhibition"
1,COc1cc(NC(=O)c2ccco2)c(C(=O)OCC(=O)Nc2ncc(Cl)cc2Cl)cc1OC,inconclusive: -32.6%
2,Cc1ccc(-c2cc(C(=O)NCCc3ccccn3)c3ccccc3n2)c(C)c1,inconclusive: -37.9%
3,O=C(CCCOc1ccc(Cl)cc1Cl)N/N=C/c1ccc(Cl)cc1,inconclusive: -61.6%
4,Clc1ccc(Cc2nc(-c3cccnc3)no2)cc1,active: -92.7%
5,COc1cccc(C(=O)N2c3ccccc3Sc3ccccc32)c1,inconclusive: -71.5%
6,CCNc1nc(N)nc(Oc2ccc(OCCOc3ccccc3)nn2)n1,inactive: 12%
7,CCOc1ccc(OCCCC(=O)O)cc1,inconclusive: -30.9%
8,COC(=O)c1cccc(NC(=O)CCCOc2ccccc2)c1,inconclusive: -36.7%
9,COc1ccc(-c2nc3cc(NC(=O)c4ccc5c(c4)OCO5)ccc3o2)cc1,inconclusive: -45%
10,CCc1ccccc1-n1c(-c2ccncc2)n[nH]c1=S,inconclusive: -48.6%
11,CCOC1OC2C(CO)OC(n3cnc4c(N)ncnc43)C2O1 (centres undefined),inconclusive: -47%
12,CCN(c1ccccc1)S(=O)(=O)c1ccc(Cl)c(NC(=O)CSc2n[nH]c(N)n2)c1,inactive: 18.9%
13,CCc1c(O)nc(SCC(=O)NC(C)(C)C)n(-c2ccccc2)c1=O,inactive: -7.41%
14,Cc1cc(C)nc(SC2CCCCC2NS(=O)(=O)c2ccc(Cl)cc2)n1 (centres undefined),active: -107%
15,CCCNC(=O)c1cccc(COCC(F)(F)C(F)F)c1,inconclusive: -46.1%
16,Cc1ccc(C(=O)CC2(O)C(=O)N(CCc3ccccc3)c3ccc(Br)cc32)o1 (centres undefined),inactive: 40.6%
17,N=C1S/C(=C\c2cccc3ccccc23)C(=O)N1c1ccc(F)cc1,inconclusive: -36.8%
18,COc1ccc(-n2c(C)cc(/C=N/Nc3nc(N4CCOCC4)nc(N4CCOCC4)n3)c2C)cc1,inconclusive: -73.3%
19,O=C(CNC(=O)c1ccccc1Cl)N/N=C/C=C/c1ccccc1,inactive: -17.5%
20,FC(F)(F)c1ccccc1/C=N/N1CCN(Cc2ccccc2)CC1,inconclusive: -58.7%

row,SMILES,"activity change (PNC), negative = inhibition"
1,CSCCC(NC(=O)c1cc([N+](=O)[O-])cc([N+](=O)[O-])c1)c1nc2ccccc2[nH]1 (centres undefined),inconclusive: -45.9%
2,NC(=O)CC1Nc2cccc3cccc(c23)NC1=O (centres undefined),inconclusive: -40.7%
3,CCN(CC)S(=O)(=O)c1ccc(/C=C/C(=O)OCC(=O)Nc2ccc(S(N)(=O)=O)cc2)cc1,inactive: -27.9%
4,CC(C)CNS(=O)(=O)c1ccc(CCC(=O)O)cc1,inconclusive: -56%
5,Cn1c(=O)c2c(nc(SCCCC#N)n2Cc2c(F)cccc2Cl)n(C)c1=O,inconclusive: -35%
6,COc1ccccc1-c1nnc2sc(COc3ccc(F)cc3)nn12,inconclusive: -39.9%
7,CCCN1C(=O)c2cccc3c(N4CCCCC4)ccc(c23)C1=O,active: -88.3%
8,O=C(Nc1ccc2c(c1)CCC2)c1cnccn1,inconclusive: -44.1%
9,Brc1cc(Br)c2nc(-c3cccs3)ccc2c1,inactive: 18.1%
10,CCOC(=O)C(C)Sc1nc(-c2cccs2)ccc1C#N (centres undefined),inconclusive: -41.1%
11,CC1CC2=C(C(=O)O1)C(c1ccc(Cl)cc1)Nc1ccccc1N2 (centres undefined),inactive: -9.64%
12,CCCCCOC(=O)c1ccccc1C(=O)O,inconclusive: -35.7%
13,Cc1ccccc1C(=O)N1CCc2ccccc2C1,inactive: -18.9%
14,N#CC1=C(N)Oc2ccccc2C12C(=O)Nc1n[nH]c(-c3ccccc3)c12 (centres undefined),inactive: 35.1%
15,COc1ccccc1OCCOCCn1cnc2ccccc2c1=O,inconclusive: -61%
16,O=C(CN1CCN(S(=O)(=O)c2ccc(Cl)cc2)CC1)Nc1ccc(F)cc1F,inactive: 0.203%
17,CCCn1c(=O)c2c(C(F)(F)F)cc(-c3cccs3)nc2n(CCC)c1=O,inconclusive: -33.5%
18,CCOC(=O)c1cccc2c1-c1ccccc1/C2=N/O,inconclusive: -36.8%
19,O=C1c2ccccc2C(=O)N1CC1=NCCc2ccccc21,inconclusive: -48.4%
